Test results reported in publication PMC11558151.
Results are given in words; binding and its absence hold for the method and conditions named. In cells and extracts the contact can be indirect. Some entries that bind do so weakly or less than the wild type. For some of these results: Sequences can lack the tags named with a protein.

Tests used:
[1] = target: T1, TLR9 with a FLAG tag (mouse Tlr9 pcDNA3.1-FLAG-C), full-length (mouse) (UniProt Q9EQU3); experiment: co-IP; HEK293T cells transfected with MYC-tagged GCA constructs and FLAG-tagged TLR9; lysates immunoprecipitated with anti-FLAG antibody, immunoblotted with anti-FLAG or anti-MYC
T1 sequence: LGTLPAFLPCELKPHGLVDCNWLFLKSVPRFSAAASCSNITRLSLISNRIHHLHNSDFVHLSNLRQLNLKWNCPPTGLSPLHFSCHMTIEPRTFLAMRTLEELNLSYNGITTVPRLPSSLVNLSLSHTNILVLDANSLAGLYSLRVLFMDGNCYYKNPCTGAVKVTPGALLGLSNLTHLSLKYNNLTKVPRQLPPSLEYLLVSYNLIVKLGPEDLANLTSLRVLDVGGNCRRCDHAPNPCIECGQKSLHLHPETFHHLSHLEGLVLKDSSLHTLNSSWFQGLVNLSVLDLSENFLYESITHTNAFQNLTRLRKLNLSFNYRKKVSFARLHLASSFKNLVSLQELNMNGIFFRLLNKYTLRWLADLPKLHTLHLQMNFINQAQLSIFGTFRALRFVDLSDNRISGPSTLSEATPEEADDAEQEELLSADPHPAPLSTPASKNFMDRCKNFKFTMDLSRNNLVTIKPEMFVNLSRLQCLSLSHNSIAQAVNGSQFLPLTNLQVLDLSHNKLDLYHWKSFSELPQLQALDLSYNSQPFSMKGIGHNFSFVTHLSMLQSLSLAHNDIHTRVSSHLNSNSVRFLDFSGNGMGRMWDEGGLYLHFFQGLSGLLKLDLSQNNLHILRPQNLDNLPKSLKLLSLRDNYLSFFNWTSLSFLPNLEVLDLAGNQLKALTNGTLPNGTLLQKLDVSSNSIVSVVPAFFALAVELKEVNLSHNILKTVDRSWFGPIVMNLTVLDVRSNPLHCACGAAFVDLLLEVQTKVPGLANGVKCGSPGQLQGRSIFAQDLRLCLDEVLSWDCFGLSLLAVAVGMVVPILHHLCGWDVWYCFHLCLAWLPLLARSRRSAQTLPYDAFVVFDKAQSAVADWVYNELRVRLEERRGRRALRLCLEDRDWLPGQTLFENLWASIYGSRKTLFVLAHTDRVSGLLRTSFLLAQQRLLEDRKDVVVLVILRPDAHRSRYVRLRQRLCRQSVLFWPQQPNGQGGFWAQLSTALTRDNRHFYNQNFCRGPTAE

[2] = target: T2, Toll-Like Receptor 9 (TLR9), endogenous in primary hepatic macrophages (mouse (endogenous in primary hepatic macrophages)) (UniProt Q9EQU3); experiment: co-IP; endogenous proteins in primary hepatic macrophages; cells lysed in RIPA buffer, lysate incubated with antibody (GCA or TLR9) and protein A/G beads at 4 °C overnight; western blot
T2 sequence: T1 sequence

HA-TLR9 = target: T3, HA-TLR9 (UniProt Q9EQU3); experiment: co-IP; HEK293T cells transfected with Myc-GCA and HA-TLR9; RIPA lysate, antibody and protein A/G beads at 4 °C overnight; western blot
T3 sequence: T1 sequence

B1: mouse Gca delete 1–50 with an MYC tag (dLNTD, deletion of lipophilic N-terminal extension domain) (domain or fragment, UniProt Q8VC88 51-220)
chain: SPADDSMWTYFTAVAGQDGEVDAEELQRCLTQSGISGTYAPFSLETCRIMIAMLDRDYTGKMGFNEFKELWAALNAWKQNFMTIDQDQSGTVEHHELSQAIALMGYRLSPQTLAAIVRRYSKNGRIFFDDYVACCVKLRALTDFFRRRDHLQQGIVNFMYEDFLQGTMTI
[1]
  binding: no binding

B2: grancalcin (GCA), endogenous in primary hepatic macrophages (protein, UniProt Q8VC88 1-220)
chain: MAYPGYGGAFGNFSGQIPGMQMQMGQPMPGAGPNMFSGGYPGYLGYSDSYSPADDSMWTYFTAVAGQDGEVDAEELQRCLTQSGISGTYAPFSLETCRIMIAMLDRDYTGKMGFNEFKELWAALNAWKQNFMTIDQDQSGTVEHHELSQAIALMGYRLSPQTLAAIVRRYSKNGRIFFDDYVACCVKLRALTDFFRRRDHLQQGIVNFMYEDFLQGTMTI
[2]
  binding: binds

B3: Myc-GCA, full length (FL) mouse GCA with an MYC tag (protein, UniProt Q8VC88 1-220)
chain: B2 chain
[1]
  binding: binds
HA-TLR9
  binding: binds
